The results in this text go back to patent publication US20260097126A1 (priority 2022, published 2026).

This series is described as follows: Fmoc solid-phase peptide synthesis; Rink resin; diimide, HATU, or HBTU. To be noted: whole synthesis, RP-HPLC.

HELM strings list residues between dots; [ac] is acetyl, [am] amide, other brackets name non-standard units.

Take “PEPTIDE1{Y.[Aib].E.G.T.F.T.S.D.Y.S.I.[Aib].L.D.K.I.A.Q.Q.A.F.V.Q.W.L.I.A.G.G.P.S.S.G.A.P.P.P.S.[am]}|PEPTIDE2{[PhosC19].[gGlu].[PEG2].[PEG2]}$PEPTIDE1,PEPTIDE2,16:R3-4:R2$$$V2.0”: the “final HPLC purity” value is given as 95.0%.
